## Results of single-concentration screens

Sequences of proteins named here, by UniProt entry; tags and fusion partners are left off. Residues count along the entry.
UniProt Q4DA54, 1-478: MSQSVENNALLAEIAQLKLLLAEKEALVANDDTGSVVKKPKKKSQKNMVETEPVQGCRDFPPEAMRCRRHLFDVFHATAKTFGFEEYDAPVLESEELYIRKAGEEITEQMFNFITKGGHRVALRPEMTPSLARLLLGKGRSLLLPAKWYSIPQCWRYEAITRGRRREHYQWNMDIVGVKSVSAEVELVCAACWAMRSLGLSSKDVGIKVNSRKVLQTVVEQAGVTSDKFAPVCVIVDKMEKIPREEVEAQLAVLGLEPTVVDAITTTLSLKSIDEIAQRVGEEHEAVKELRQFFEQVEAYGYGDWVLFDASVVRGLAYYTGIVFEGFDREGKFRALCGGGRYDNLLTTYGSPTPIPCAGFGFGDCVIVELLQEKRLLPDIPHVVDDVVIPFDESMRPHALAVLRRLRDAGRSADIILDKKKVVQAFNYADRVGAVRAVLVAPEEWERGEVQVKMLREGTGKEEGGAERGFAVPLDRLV

Data taken from ChEMBL document CHEMBL3988442, “University of Dundee, Small-Polar-MMV Screening Library” (2021).

Values are the deposited “Percent Effect”, in %. The record does not define 0% and 100%; most values in the screen are far below 50% and negative numbers occur (in some assays of this library far below -100). This is an unselected part of the compounds tested.

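Enzyme assay of histidyl-tRNA synthetase; the read-out is not stated. Target: Histidine-tRNA ligase, Trypanosoma cruzi CL Brener (UniProt Q4DA54). Concentration: 30 µM. The record gives no direction; compounds that gave an IC50 in retests scored well above the rest, so higher reads as stronger inhibition. Size under these conditions: about 69,000 compounds, about 31 of them at 50% or above in at least one test.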

compound,effect
CCCNC(=O)C1(Cc2cc(-c3ccccc3)no2)CCN(C(C)=O)C1 (centres undefined),1.916
O=C(c1ccn(-c2ccc(F)cc2)n1)N1CCCC(n2ccnc2)C1 (centres undefined),5.233
CN1CCC(Oc2ccc(-n3ccnc3-c3ccncc3)cc2)CC1,8.458
Cc1ccc(CN(CCCO)Cc2nc3ccccc3[nH]2)s1,10.13
CC(=O)NC1CCCN(C(=O)NCc2cccnc2)C1 (centres undefined),6.706
Cc1cc(C)c2[nH]c(=O)c(CN3CCC(O)(CN(C)C)C3)cc2c1 (centres undefined),9.827
COC(=O)C(C)(C)NC(=O)C1CC(=O)N(CC(F)(F)F)C1 (centres undefined),8.04
CCc1nccn1CCC(=O)N1CCN(c2ccccc2C)CC1C (centres undefined),10.71
CCc1nnc2n1CCN(C(=O)c1ccc3[nH]cnc3c1)C2,0
CN(C)C(=O)Cc1ccc(NC(=O)c2cn(C)nn2)cc1,-41.11
O=C1C(NCc2nnc3n2CCCC3)CCN1c1ccccc1F (centres undefined),2.353
COCCCC(=O)Nc1cccnc1N1CCCCC1,2.353
COc1ccc(CC(=O)N(C)Cc2nnc3ccccn23)cc1,-0.3774
CC(C)Oc1ccc(C(=O)N2CCCSCC2CN(C)C)cc1 (centres undefined),-14
CN(C)CCN(C)C[C@@H]1CN(C(=O)NC2CCCC2)C[C@@H]1CO,2.146
COCC(=O)NCCc1ccc(I)s1,0.8403
CNc1cc2c(nn1)CCN(C(=O)c1ccccc1-n1cccn1)C2,5.473
CC(C)(C)n1cc(C2=CCN(CCc3ccccc3)CC2)cn1,8.13
CC(C)n1cnnc1CN(C)C(=O)c1cccnc1O,0.8
CC(C)c1n[nH]c(C2CN(C(=O)c3cc(C4CC4)on3)CCO2)n1 (centres undefined),-2
CN(C)C(=O)[C@H]1CC[C@@H]2[C@@H](CCN2C(=O)N(C)C)O1,2.532
COCCN(C)CCN1CC2(CCN(C3CCNCC3)CC2)OC1=O,0.5025
O=C(c1ccco1)N1CCCC2(CN(Cc3ccoc3)CCO2)C1 (centres undefined),1.493
O=C(CCN1CCCCO1)N1CC[C@H](O)[C@@H](O)C1,8.333
O=C(c1ccc(=O)[nH]n1)N1CCCC(O)(CN2CCC(F)(F)CC2)CC1 (centres undefined),6.154
O=C(C1CCCC1)N1CCO[C@H]2[C@H](OCC3CCOCC3)CC[C@@H]21,0
O=C(CCCn1cncn1)NC1(c2ccc(Cl)cc2)CCC1,13.69
COc1ccc(F)c(F)c1CN1CCC2(CC1)[C@H](O)C[C@@H]2OCCN,16.09
O=C(c1coc(CN2CCN(c3ccccc3F)CC2)n1)N1CC=CC1,16.09
CC(C)CN1CCN(C(=O)Nc2cc(C(F)(F)F)c[nH]c2=O)CC1,0.7634
Cc1n[nH]c(NC(=O)c2ccc(COCC(F)(F)F)cc2)c1C,8.911
COCCN1C[C@@H](C)[C@@]2(COCCN(C(=O)c3cnc(C)cn3)C2)C1,8.108
O=C1[C@H]2CN(Cc3ccncc3)C[C@H]2CN1c1ccsc1,12.61
Cc1n[nH]c(C2CN(C(=O)c3csnn3)CCO2)n1 (centres undefined),0.9804
O=C(CCCn1cnc2ccccc2c1=O)Nc1nc[nH]n1,3.96
Cc1nc(C2(NCc3c(C)nn(C)c3N3CCOCC3)CCC2)no1,-1.657
COC(=O)CCCC(=O)N(C)CC1Cc2ccccc2CN1C (centres undefined),0.5128
COCCN1C[C@@H]2CCCO[C@@H]2[C@H](NC(=O)c2cnccn2)C1,4.865
Cc1nc(CC2CCN(C(=O)C(c3ccccc3C)N(C)C)CC2)no1 (centres undefined),-0.4292
Cc1ccc(-c2nc(CCNC(=O)NC3CCN(C)CC3)co2)cc1,-3.396
COC1CCCN(C(=O)NCc2ccc(C(=O)N(C)C(C)C)cc2)C1 (centres undefined),9.412
CC(C)N1CCCC2(CCN(C(=O)COCC(F)(F)C(F)F)C2)C1=O (centres undefined),10.53
Cc1cc(C)cc(C(=O)Nc2cn[nH]c2)c1,12.43
Cc1ccc(CS(=O)(=O)N2CC[C@H]3[C@H]2CCN3C)cc1,-0.8264
Cc1cccc(Nc2ccc(C3CCCCN3)cn2)n1 (centres undefined),5.385

Some entries from above, unchanged:

CN(C)CCN(C)C[C@@H]1CN(C(=O)NC2CCCC2)C[C@@H]1CO read 2.146%.
Cc1cc(C)cc(C(=O)Nc2cn[nH]c2)c1 read 12.43%.